# Assay results reported in PubChem BioAssay AID1345085 (National Center for Advancing Translational Sciences (NCATS), 2018).
# The inconclusive results got no clear call from the source; some entries with a clear call stand among them for comparison. Where the call is inconclusive, the potency comes from a doubtful curve fit. The source made the active and inactive calls. Calls come from the whole dose curve; as a rule, active = well fitted cell-killing curve with a large enough effect; inconclusive = small, poorly fitted or top-dose-only effect, or effect the other way; inactive = no such curve, though single readings can be large or run the other way.
# Test system: Hek293T
# Assay: Confirmatory qHTS for gynecologic anti-cancer compounds from libraries of approved drugs and bioactive compounds; note: nearly all actives have a fitted effect of over 55% in size
# Settings: gynecologic cancer cell panel viability, ATPlite luminescence, 48 h; series mostly up to 57.6 µM
# Outline: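 Cells (1,000/well) plated 16 h, then exposed 48 h at 37 °C to 11 concentrations (1:3) from 57.5 uM to 0.977 nM. Viability by ATPlite luminescence after 15 min; IC50 derived, with HEK 293T used for selectivity index.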
# Potency is the fitted concentration of half-maximal effect.
row,Structure (SMILES),Potency
1,CC(C)C[C@H](NC(=O)[C@@H](NC(=O)c1cccc(-c2ccccc2)n1)[C@@H](C)O)B(O)O,active: 0.193 µM
2,CC[C@H](CC#N)OC(=O)N[C@@H](C)c1cccc(NC(=O)Nc2ccc(-c3cnco3)c(OC)c2)c1,active: 0.0769 µM
3,CCCS(=O)c1ccc2nc(NC(=O)OC)[nH]c2c1 (centres undefined),"inconclusive: 0.0034 µM [cytotoxic, full curve, poor fit]"
4,COc1cc(N2CCC(N3CCN(C)CC3)CC2)ccc1Nc1ncnc(Nc2ccccc2S(=O)(=O)C(C)C)n1,active: 21.7 µM
5,Cc1ccc(-n2[nH]c(C)c(N=Nc3cccc(-c4cccc(C(=O)O)c4)c3O)c2=O)cc1C,inactive
6,CCN1CCN(Cc2ccc(-c3cc4c(NC(C)c5ccccc5)ncnc4[nH]3)cc2)CC1 (centres undefined),active: 27.3 µM
7,CN1C2CCC1CC(OC(=O)[C@H](CO)c1ccccc1)C2 (some centres undefined),inactive
8,CC[C@]1(O)C[C@H]2CN(CCc3c([nH]c4ccccc34)[C@@](C(=O)OC)(c3cc4c(cc3OC)N(C=O)[C@H]3[C@@](O)(C(=O)OC)[C@H](OC(C)=O)[C@]5(CC)C=CCN6CC[C@]43[C@@H]65)C2)C1,"inconclusive: 0.172 µM [cytotoxic, full curve]"
9,Cc1nc(NC(=O)N2CCCC2C(N)=O)sc1-c1csc(C(C)(C)C)n1 (centres undefined),"inconclusive: 4.85 µM [cytotoxic, full curve, poor fit]"
10,Nc1ncn([C@@H]2O[C@H](CO)[C@@H](O)[C@H]2O)c(=O)n1,"inconclusive: 19.3 µM [cytotoxic, partial curve]"
11,Cc1cnc(CNC(=O)c2c(=O)c3ccc(N4CCCN(C)CC4)nc3n3c2sc2ccccc23)cn1,"inconclusive: 1.11 µM [cytotoxic, full curve]"
12,Cc1[nH]c2ccccc2c1CCNCc1ccc(/C=C/C(=O)NO)cc1,active: 0.193 µM
13,CC(=O)c1cnc2ccc(-c3cc(Cl)c(O)c(Cl)c3)nc2c1NC1CCC(CN(C)C)CC1 (centres undefined),active: 0.0352 µM
14,CCCCN(CCCC)C(=O)CN1C[C@H](c2ccc3c(c2)OCO3)[C@@H](C(=O)O)[C@@H]1c1ccc(OC)cc1,"inconclusive: 1.93 µM [cytotoxic, full curve]"
15,CC(Oc1cc(-n2cnc3ccc(CN4CCN(C)CC4)cc32)sc1C(N)=O)c1ccccc1C(F)(F)F (centres undefined),active: 24.3 µM
16,COc1c(C)c2c(c(O)c1C/C=C(\C)CCC(=O)O)C(=O)OC2,"inconclusive: 10.9 µM [cytotoxic, partial curve, poor fit]"
17,Cn1cc(-c2ccc3ncc(Cc4ccc5ncccc5c4)n3n2)cn1,"inconclusive: 0.0069 µM [cytotoxic, full curve, poor fit]"

row,Structure (SMILES),Potency
1,COc1cc2c(c(OC)c1OC)-c1ccc(OC)c(=O)cc1[C@@H](NC(C)=O)CC2,inactive
2,Nc1ccn([C@@H]2O[C@H](CO)[C@@H](O)C2(F)F)c(=O)n1,"inconclusive: 0.385 µM [cytotoxic, full curve, poor fit]"
3,CNC(=O)c1ccccc1Nc1nc(Nc2ccc(N3CCOCC3)cc2OC)ncc1Cl,"inconclusive: 43.2 µM [cytotoxic, single point]"
4,N#CC1(c2cccc(C(=O)Nc3cc(Oc4ccc5nc(NC(=O)C6CC6)sc5n4)ccc3F)c2Cl)CC1,"inconclusive: 0.432 µM [cytotoxic, full curve]"
5,Cc1ccc2nc(N)[nH]c(=O)c2c1Sc1ccncc1,"inconclusive: 3.06 µM [cytotoxic, full curve]"
6,Oc1cn2c(n1)Nc1ccc(Cl)c(Cl)c1C2,"inconclusive: 15 µM [rising, single point]"
7,CN(C)/N=N/c1nc[nH]c1C(N)=O,inactive
8,CCCC(=O)O[C@]1(C(=O)CCl)[C@@H](C)C[C@H]2[C@@H]3CCC4=CC(=O)C=C[C@]4(C)[C@@]3(F)C(=O)C[C@@]21C,"inconclusive: 0.0109 µM [cytotoxic, full curve]"
9,CN1CCN(CCOc2cc(OC3CCOCC3)c3c(Nc4c(Cl)ccc5c4OCO5)ncnc3c2)CC1,"inconclusive: 43.2 µM [cytotoxic, partial curve, poor fit]"
10,C[C@]12CCC(=O)C=C1CC[C@@H]1[C@@H]2[C@@H](O)C[C@@]2(C)[C@H]1CC[C@]2(O)C(=O)CO,"inconclusive: 38.5 µM [cytotoxic, single point]"
11,NC1(c2ccc(-c3nc4ccn5c(=O)[nH]nc5c4cc3-c3ccccc3)cc2)CCC1,"inconclusive: 0.0485 µM [rising, full curve, poor fit]"
12,O=c1cc(CN2CCOCC2)occ1OCCCCCSc1ccnc2cc(C(F)(F)F)ccc12,"inconclusive: 7.69 µM [cytotoxic, partial curve, poor fit]"
13,CS(=O)(=O)c1ccc(-c2cnc(N)c(C(=O)Nc3ccccc3)n2)cc1,inactive
14,O=C(c1ccc(F)c(F)c1Nc1ccc(I)cc1F)N1CC(O)([C@@H]2CCCCN2)C1,active: 24.3 µM
15,CN1CCN(c2cccc(Nc3nc4c(-c5ccc(S(C)(=O)=O)cc5)cccn4n3)c2)CC1,inactive
16,COc1cccc2cc(-c3nc(C4CCC(C(=O)O)CC4)n4ncnc(N)c34)[nH]c12 (centres undefined),"inconclusive: 5.44 µM [cytotoxic, full curve]"
17,CNC1CCC(N(Cc2cccc(-c3ccncc3)c2)C(=O)c2sc3ccccc3c2Cl)CC1 (centres undefined),"inconclusive: 19.3 µM [cytotoxic, partial curve, poor fit]"

# Some of the entries so far, tab-delimited.
row	Structure (SMILES)	Potency
14	O=C(c1ccc(F)c(F)c1Nc1ccc(I)cc1F)N1CC(O)([C@@H]2CCCCN2)C1	active: 24.3 µM
15	CN1CCN(c2cccc(Nc3nc4c(-c5ccc(S(C)(=O)=O)cc5)cccn4n3)c2)CC1	inactive
